Experimental data taken from paper PMC12457610.
These are yes or no findings as the source states them, for the method shown. Some entries that bind do so weakly or less than the wild type.

Biological target: GndR (Lpg1604), RES domain-containing predicted toxin of the GndRX system (Legionella pneumophila) (UniProt Q5ZV38)
Test: two-hybrid

How did the binding turn out when “GndX (Lpg1605), Xre domain-containing predicted antitoxin of the GndRX system (from UniProt Q5ZV37 36-159)” was run?
Its binding is “binds”.
